# Assay results from PubChem BioAssay AID1362 (SRMLSC, 2008).
# The entries are a selection whose mix differs from that of the whole data set. Calls of active or inactive are those of the source. Cut-off read from the data, not from the text of the source: active = inhibition above about 58%; inactive = the rest, inconclusive results apart; tested in S. cerevisiae.
# Assay: growth inhibition of WT strain, primary screen, mitochondrial fusion inhibitor project, WT and mutant strains, chemical genetic (AID 1362)
# Conditions: mitochondrial fusion phenotypic screen, at 10 µM
smiles,measurement,setting,value
CN[C@H]1C[C@H]2O[C@@](C)([C@H]1OC)n1c3ccccc3c3c4c(c5c6ccccc6n2c5c31)C(=O)NC4,inhibition,"WT strain, growth inhibition, stronger effect = higher value",active: 72%
same,inhibition,mutant strain inhibition,69.3%
